For 18 targets, log2 fold change results are on record in the supplement of paper PMC10849652.

Sequences of proteins named here, by UniProt entry; tags and fusion partners are left off. A change or cut given only in a name is not applied to a line headed by its entry.
UniProt Q6QNK2: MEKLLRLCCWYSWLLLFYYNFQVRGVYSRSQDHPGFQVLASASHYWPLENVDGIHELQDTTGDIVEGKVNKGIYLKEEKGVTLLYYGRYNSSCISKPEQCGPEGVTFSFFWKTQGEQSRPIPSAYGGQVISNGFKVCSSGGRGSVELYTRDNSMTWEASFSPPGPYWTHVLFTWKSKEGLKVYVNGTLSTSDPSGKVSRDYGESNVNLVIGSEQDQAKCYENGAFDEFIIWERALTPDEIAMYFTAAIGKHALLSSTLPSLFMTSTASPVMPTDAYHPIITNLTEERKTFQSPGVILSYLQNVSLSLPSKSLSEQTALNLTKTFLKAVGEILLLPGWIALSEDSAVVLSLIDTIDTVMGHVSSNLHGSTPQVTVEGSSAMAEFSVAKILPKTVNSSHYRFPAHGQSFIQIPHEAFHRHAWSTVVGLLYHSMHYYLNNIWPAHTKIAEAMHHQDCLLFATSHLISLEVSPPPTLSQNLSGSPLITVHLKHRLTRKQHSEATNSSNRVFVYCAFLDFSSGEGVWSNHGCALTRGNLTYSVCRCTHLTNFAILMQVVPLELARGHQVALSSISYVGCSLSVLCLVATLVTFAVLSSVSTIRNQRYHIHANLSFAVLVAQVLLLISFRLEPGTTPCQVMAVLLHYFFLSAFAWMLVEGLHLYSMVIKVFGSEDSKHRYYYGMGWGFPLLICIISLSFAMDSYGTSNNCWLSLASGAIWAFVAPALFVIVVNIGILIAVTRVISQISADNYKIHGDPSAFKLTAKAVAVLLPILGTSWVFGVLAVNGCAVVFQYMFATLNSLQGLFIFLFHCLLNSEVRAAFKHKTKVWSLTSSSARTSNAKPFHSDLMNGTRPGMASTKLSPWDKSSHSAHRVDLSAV
UniProt Q9UHX3: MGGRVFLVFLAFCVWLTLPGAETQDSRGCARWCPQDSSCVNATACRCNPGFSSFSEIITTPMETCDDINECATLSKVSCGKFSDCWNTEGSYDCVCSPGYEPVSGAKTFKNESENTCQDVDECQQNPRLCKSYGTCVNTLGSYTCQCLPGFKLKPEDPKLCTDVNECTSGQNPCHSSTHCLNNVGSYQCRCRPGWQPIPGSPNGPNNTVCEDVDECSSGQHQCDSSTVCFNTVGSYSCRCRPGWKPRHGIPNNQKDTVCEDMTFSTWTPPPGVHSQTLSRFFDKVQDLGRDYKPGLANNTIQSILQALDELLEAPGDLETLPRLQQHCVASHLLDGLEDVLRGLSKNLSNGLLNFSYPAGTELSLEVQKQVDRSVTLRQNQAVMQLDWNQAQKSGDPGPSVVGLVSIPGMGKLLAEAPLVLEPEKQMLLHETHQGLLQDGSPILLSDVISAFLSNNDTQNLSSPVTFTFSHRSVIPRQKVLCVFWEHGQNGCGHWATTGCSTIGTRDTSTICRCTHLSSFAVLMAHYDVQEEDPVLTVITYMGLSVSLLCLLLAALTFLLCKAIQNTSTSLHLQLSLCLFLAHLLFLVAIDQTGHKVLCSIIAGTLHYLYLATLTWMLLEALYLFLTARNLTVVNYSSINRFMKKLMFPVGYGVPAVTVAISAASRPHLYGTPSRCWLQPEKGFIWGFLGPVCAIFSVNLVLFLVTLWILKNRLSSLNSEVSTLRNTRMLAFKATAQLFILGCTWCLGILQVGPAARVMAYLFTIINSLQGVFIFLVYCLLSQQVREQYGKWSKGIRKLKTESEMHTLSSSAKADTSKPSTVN
UniProt P35611: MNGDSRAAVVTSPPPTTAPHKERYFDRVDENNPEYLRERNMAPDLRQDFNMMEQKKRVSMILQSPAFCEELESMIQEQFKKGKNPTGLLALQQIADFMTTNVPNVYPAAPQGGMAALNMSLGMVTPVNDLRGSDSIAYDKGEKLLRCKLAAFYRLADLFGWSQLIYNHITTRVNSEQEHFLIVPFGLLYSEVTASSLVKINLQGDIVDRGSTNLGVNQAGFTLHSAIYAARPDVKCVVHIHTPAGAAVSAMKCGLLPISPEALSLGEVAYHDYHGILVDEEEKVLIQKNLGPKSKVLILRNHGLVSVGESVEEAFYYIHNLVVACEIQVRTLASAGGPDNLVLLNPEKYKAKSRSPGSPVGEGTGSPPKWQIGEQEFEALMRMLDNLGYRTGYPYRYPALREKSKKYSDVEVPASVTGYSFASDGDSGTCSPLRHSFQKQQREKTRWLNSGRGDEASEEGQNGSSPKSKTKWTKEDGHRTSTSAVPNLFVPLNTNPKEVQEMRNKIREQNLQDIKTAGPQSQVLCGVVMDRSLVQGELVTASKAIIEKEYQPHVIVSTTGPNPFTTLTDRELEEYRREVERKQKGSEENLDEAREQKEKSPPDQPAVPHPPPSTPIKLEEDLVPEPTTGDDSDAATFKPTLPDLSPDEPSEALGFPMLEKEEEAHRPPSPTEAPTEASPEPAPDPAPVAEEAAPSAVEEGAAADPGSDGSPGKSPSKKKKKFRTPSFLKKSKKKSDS
UniProt P05091: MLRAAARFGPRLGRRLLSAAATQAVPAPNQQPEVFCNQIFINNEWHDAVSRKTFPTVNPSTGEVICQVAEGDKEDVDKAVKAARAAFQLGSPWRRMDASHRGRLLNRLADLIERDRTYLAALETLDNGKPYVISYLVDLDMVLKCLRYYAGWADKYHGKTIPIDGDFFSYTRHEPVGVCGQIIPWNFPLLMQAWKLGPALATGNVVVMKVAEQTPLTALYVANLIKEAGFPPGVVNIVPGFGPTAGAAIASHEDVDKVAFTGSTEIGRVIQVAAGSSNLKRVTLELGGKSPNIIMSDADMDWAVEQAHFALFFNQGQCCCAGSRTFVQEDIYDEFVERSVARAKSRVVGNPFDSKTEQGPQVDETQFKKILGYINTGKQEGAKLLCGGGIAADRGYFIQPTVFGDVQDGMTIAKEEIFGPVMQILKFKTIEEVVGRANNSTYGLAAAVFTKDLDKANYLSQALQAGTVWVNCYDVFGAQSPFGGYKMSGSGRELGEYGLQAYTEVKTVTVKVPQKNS
UniProt Q53H80, whole entry, looked up: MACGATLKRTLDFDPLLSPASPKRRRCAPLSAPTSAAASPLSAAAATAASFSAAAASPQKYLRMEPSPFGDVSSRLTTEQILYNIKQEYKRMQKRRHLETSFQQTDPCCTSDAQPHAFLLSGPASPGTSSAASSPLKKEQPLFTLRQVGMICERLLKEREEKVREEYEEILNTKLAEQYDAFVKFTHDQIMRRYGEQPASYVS
UniProt Q6RW13: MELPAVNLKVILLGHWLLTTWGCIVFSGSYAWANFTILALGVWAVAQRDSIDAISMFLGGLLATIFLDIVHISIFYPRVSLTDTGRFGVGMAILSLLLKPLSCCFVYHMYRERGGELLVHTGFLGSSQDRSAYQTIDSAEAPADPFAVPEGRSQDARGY
UniProt Q96Q42: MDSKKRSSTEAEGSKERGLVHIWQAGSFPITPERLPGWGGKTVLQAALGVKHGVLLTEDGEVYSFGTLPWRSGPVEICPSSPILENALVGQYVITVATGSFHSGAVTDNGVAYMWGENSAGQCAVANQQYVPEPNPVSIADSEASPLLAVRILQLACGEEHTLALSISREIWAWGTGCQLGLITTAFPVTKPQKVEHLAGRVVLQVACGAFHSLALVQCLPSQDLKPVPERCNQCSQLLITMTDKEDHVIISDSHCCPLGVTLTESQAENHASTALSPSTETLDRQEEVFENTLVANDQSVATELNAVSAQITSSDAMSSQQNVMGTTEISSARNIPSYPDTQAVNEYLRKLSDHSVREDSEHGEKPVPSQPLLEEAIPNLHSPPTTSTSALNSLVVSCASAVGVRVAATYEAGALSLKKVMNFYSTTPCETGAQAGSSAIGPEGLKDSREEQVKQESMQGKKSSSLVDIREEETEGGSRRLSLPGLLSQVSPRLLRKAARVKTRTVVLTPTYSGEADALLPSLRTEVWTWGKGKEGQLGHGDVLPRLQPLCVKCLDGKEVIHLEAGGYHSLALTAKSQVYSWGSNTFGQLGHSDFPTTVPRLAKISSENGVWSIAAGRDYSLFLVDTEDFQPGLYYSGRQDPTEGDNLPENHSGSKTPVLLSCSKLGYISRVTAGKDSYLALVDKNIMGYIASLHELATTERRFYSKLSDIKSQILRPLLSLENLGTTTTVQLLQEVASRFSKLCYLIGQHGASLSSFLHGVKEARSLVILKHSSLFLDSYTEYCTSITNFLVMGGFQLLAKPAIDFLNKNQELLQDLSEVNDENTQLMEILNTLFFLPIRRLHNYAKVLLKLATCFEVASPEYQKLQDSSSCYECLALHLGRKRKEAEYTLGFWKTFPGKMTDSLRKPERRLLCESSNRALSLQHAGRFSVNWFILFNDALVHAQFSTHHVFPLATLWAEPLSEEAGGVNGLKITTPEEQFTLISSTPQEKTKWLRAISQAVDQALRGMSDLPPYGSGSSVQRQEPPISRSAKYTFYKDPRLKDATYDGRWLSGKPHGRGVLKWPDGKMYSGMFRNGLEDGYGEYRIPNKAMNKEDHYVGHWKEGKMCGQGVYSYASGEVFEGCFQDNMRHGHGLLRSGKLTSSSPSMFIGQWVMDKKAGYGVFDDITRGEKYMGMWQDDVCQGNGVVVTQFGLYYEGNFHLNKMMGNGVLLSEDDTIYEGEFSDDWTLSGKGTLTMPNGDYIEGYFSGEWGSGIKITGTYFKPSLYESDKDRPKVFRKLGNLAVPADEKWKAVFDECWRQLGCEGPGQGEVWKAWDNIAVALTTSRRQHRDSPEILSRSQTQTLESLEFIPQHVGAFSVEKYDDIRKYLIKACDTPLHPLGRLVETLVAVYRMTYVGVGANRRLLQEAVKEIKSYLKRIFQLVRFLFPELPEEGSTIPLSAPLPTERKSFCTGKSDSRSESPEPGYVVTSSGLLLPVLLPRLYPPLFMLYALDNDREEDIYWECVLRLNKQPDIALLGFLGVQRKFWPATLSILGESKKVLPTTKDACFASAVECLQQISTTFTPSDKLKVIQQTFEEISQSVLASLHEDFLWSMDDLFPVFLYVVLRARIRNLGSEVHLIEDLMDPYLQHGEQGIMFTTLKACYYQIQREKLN
UniProt P51825: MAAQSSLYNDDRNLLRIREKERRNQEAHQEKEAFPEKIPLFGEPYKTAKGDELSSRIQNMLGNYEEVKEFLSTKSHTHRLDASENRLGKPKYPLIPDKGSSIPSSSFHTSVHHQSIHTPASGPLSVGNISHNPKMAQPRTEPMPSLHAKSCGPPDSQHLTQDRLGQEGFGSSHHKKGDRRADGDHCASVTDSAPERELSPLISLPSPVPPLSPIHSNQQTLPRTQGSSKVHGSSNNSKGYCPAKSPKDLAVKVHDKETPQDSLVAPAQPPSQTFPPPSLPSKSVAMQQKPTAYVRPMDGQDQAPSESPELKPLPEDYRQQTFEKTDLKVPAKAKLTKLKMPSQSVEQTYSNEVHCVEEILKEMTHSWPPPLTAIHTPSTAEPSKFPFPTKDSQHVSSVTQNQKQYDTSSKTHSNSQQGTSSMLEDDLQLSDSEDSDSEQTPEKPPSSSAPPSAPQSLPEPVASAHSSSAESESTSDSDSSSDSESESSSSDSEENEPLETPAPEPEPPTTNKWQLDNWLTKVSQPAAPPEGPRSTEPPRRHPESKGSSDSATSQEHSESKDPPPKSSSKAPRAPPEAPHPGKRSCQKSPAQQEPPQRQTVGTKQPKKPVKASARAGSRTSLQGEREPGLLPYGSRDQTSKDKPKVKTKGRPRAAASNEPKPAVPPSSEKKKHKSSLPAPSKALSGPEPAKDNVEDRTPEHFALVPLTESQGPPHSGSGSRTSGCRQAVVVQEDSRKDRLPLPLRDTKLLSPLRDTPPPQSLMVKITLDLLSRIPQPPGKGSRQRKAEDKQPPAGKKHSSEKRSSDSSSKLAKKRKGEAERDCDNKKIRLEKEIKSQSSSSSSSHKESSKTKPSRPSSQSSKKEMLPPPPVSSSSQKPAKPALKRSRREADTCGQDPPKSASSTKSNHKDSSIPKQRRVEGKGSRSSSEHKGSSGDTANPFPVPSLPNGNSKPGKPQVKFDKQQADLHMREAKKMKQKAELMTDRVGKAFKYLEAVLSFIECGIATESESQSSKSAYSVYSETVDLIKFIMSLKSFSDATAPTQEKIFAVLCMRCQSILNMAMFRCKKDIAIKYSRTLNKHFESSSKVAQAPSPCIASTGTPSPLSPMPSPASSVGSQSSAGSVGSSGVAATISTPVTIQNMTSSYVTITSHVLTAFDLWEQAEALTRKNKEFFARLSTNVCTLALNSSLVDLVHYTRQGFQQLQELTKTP
UniProt P20933: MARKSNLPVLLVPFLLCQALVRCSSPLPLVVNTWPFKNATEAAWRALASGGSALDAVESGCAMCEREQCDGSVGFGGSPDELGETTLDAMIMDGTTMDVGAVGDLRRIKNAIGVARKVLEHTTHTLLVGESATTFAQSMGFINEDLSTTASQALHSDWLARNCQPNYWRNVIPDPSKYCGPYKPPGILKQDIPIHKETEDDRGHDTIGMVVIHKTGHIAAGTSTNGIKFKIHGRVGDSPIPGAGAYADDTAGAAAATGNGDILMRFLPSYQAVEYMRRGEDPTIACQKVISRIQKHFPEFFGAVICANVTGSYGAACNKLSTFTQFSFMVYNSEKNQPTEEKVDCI

This is one part of the list.

Common to all, as to test: log2 fold change, soluble protein after heating vs DMSO (PISA); higher = thermal stabilisation; K562 cells, 10 uM, 30 min; active = over 0.2 and 3.5 SD of the protein, either way, in both replicates (recomputed)
Compound in test [1]: CC1=C(SC2=C1C(=N[C@H](C3=NN=C(N32)C)CC(=O)N)C4=CC=C(C=C4)Cl)C
The essentials:
(§1)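 K562 cells at 2×10^6 cells/mL were treated with 10 μM compound for 30 min. Aliquots were heated for 3 min across 48°C-58°C, pooled, and extracted in PBS with 0.5% NP-40 at 4°C; soluble protein was the supernatant after 21,000xg for 90 min. Soluble protein was quantified by TMTpro 16plex LC-MS/MS with channel sums equalised, and reported as log2 fold change in thermal stability against DMSO controls, with values from duplicates.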

Compound in test [2]: CC1=C2C(=CC=C1)N=C(N(C2=O)C3=CC=CC=C3C)CN4C=NC5=C(N=CN=C54)N
The gist of the method:
as §1

Compound in test [3]: Cc1sc2c(c1C)C(c1ccc(Cl)cc1)=N[C@@H](CC(=O)OC(C)(C)C)c1nnc(C)n1-2
The gist of the method:
as §1

Compound in test [4]: c1ccc([C@@H]2C[C@H]2NC2CCNCC2)cc1
The essentials: as §1

Compound in test [5]: C1=CC=C(C=C1)[C@H](COC2=CC3=C(C=C2)NC(=O)N3)NC(=O)C4=CC=CN(C4=O)CC5=CC(=C(C=C5)F)F
The essentials: as §1

Consider ADGRD1 isoform 4 (UniProt Q6QNK2), for which the log2 fold change in test [1] is inactive: -0.048; in test [2], inactive: 0.216; in test [3], inactive: 0.028; in test [4] it was inactive: 0.026.

For the target ALOX12B (UniProt O75342), the values for the log2 fold change in test [5], in test [2] and in test [3] were inactive: -0.065, inactive: -0.645 and inactive: -0.204, respectively.

Regarding ADGRE2 (UniProt Q9UHX3), the log2 fold change is inactive: -0.075 in test [5], inactive: 0.072 in test [2] and inactive: -0.103 in test [3].

Regarding ADD1 isoform 4 (UniProt P35611), the values for the log2 fold change in test [5], in test [1] and in test [4] were inactive: -0.03, inactive: 0.04 and inactive: 0.217, respectively.

As to AKAP9 isoform 6 (UniProt Q99996), the log2 fold change in test [1] was inactive: -0.276; in test [4] it was inactive: -0.174.

Regarding ADGRV1 (UniProt Q8WXG9), the log2 fold change in test [5] was inactive: -0.133; in test [1], inactive: 0.005; in test [4], inactive: 0.085.

For the target ADCK5 (UniProt Q3MIX3), the figures for the log2 fold change in test [2] and in test [3] were inactive: -0.106 and inactive: 0.073, respectively.

As for AIG1 (UniProt Q9NVV5), the log2 fold change in test [3] was inactive: -0.01.

As to AMMECR1 (UniProt Q9Y4X0), the log2 fold change in test [1] was inactive: -0.085; in test [2], inactive: 0.097; in test [4] it was inactive: 0.004.

ALDH2 isoform 2 (UniProt P05091): the values for the log2 fold change in test [5], in test [2] and in test [3] were inactive: -0.092, inactive: 0.379 and inactive: 0.074, respectively.

As to AGPAT4 (UniProt Q9NRZ5), the log2 fold change was inactive: -0.001 in test [5], inactive: 0.047 in test [1], inactive: -0.065 in test [3] and inactive: -0.003 in test [4].

As for AFDN isoform 1 (UniProt P55196), the log2 fold change is inactive: 0.038 in test [5], inactive: -0.119 in test [1], inactive: 0.029 in test [2] and inactive: 0.177 in test [4].

Regarding AGAP1 (UniProt Q9UPQ3), the log2 fold change in test [1] is inactive: -0.046; in test [2] it was inactive: -0.003; in test [4], inactive: 0.073.

For the target AKIRIN2 (UniProt Q53H80), the log2 fold change in test [1] was inactive: 0.113; in test [2], inactive: 0.063; in test [3], inactive: -0.069; in test [4], inactive: 0.015.

On to AGTRAP isoform 2 (UniProt Q6RW13), for which the log2 fold change in test [3] was inactive: 0.077.

In the case of ALS2 (UniProt Q96Q42), the log2 fold change in test [3] was inactive: 0.016.

AFF1 isoform 2 (UniProt P51825): the values for the log2 fold change in test [5] and in test [2] were inactive: -0.333 and inactive: -0.09, respectively.

For AGA (UniProt P20933), the log2 fold change in test [5] was inactive: 0.012; in test [1], inactive: -0.395; in test [4], inactive: 0.073.
